Experiment [1] concerns the target HD2A fused to nYFP (Arabidopsis thaliana). As to the kind of experiment: split reporter; BiFC with nYFP and cYFP fusions from pBiFCt-2in1-NN in Arabidopsis protoplasts; YFP signal by confocal microscopy after 16 h to 24 h in the dark.
The target in experiment [2] is HD2A-GFP (Arabidopsis thaliana). As to the kind of experiment: co-IP; HSI2-myc or HSL1-myc transiently expressed in protoplasts of HD2A-GFP or HD2B-GFP lines; total protein extract (50 mM Tris-HCl pH 8, 150 mM NaCl, 0.1% Nonidet P-40) on GFP-Trap agarose beads at 4°C overnight; immunoblot with anti-Myc antibody. For orientation: In western blotting, separated proteins are transferred to a membrane and probed.

Results are given in words; binding and its absence hold for the method and conditions named. Binding seen in cells or lysates may run through a third protein. Binding can be weak; no strength is given. Tags and fused reporters may be left off the sequences shown.

B1: HSI2-LIKE1 (HSL1) fused to cYFP (protein, UniProt Q5CCK4 1-780)
chain: MESIKVCMNALCGAASTSGEWKKGWPMRSGDLASLCDKCGCAYEQSIFCEVFHAKESGWRECNSCDKRLHCGCIASRFMMELLENGGVTCISCAKKSGLISMNVSHESNGKDFPSFASAEHVGSVLERTNLKHLLHFQRIDPTHSSLQMKQEESLLPSSLDALRHKTERKELSAQPNLSISLGPTLMTSPFHDAAVDDRSKTNSIFQLAPRSRQLLPKPANSAPIAAGMEPSGSLVSQIHVARPPPEGRGKTQLLPRYWPRITDQELLQLSGQYPHLSNSKIIPLFEKVLSASDAGRIGRLVLPKACAEAYFPPISLPEGLPLKIQDIKGKEWVFQFRFWPNNNSRMYVLEGVTPCIQSMQLQAGDTVTFSRTEPEGKLVMGYRKATNSTATQMFKGSSEPNLNMFSNSLNPGCGDINWSKLEKSEDMAKDNLFLQSSLTSARKRVRNIGTKSKRLLIDSVDVLELKITWEEAQELLRPPQSTKPSIFTLENQDFEEYDEPPVFGKRTLFVSRQTGEQEQWVQCDACGKWRQLPVDILLPPKWSCSDNLLDPGRSSCSAPDELSPREQDTLVRQSKEFKRRRLASSNEKLNQSQDASALNSLGNAGITTTGEQGEITVAATTKHPRHRAGCSCIVCSQPPSGKGKHKPSCTCTVCEAVKRRFRTLMLRKRNKGEAGQASQQAQSQSECRDETEVESIPAVELAAGENIDLNSDPGASRVSMMRLLQAAAFPLEAYLKQKAISNTAGEQQSSDMVSTEHGSSSAAQETEKDTTNGAHDPVN
On to B1, for which, in experiment [1], the binding entry was “binds”.

B2: HSL1-myc (protein, UniProt Q5CCK4 1-780)
chain: B1 chain
B2: the binding entry in experiment [2] is listed as “binds”.

B3: HIGH-LEVEL EXPRESSION OF SUGAR INDUCIBLE2 (HSI2) fused to cYFP (protein, UniProt Q8W4L5 1-790)
chain: MFEVKMGSKMCMNASCGTTSTVEWKKGWPLRSGLLADLCYRCGSAYESSLFCEQFHKDQSGWRECYLCSKRLHCGCIASKVTIELMDYGGVGCSTCACCHQLNLNTRGENPGVFSRLPMKTLADRQHVNGESGGRNEGDLFSQPLVMGGDKREEFMPHRGFGKLMSPESTTTGHRLDAAGEMHESSPLQPSLNMGLAVNPFSPSFATEAVEGMKHISPSQSNMVHCSASNILQKPSRPAISTPPVASKSAQARIGRPPVEGRGRGHLLPRYWPKYTDKEVQQISGNLNLNIVPLFEKTLSASDAGRIGRLVLPKACAEAYFPPISQSEGIPLKIQDVRGREWTFQFRYWPNNNSRMYVLEGVTPCIQSMMLQAGDTVTFSRVDPGGKLIMGSRKAANAGDMQGCGLTNGTSTEDTSSSGVTENPPSINGSSCISLIPKELNGMPENLNSETNGGRIGDDPTRVKEKKRTRTIGAKNKRLLLHSEESMELRLTWEEAQDLLRPSPSVKPTIVVIEEQEIEEYDEPPVFGKRTIVTTKPSGEQERWATCDDCSKWRRLPVDALLSFKWTCIDNVWDVSRCSCSAPEESLKELENVLKVGREHKKRRTGESQAAKSQQEPCGLDALASAAVLGDTIGEPEVATTTRHPRHRAGCSCIVCIQPPSGKGRHKPTCGCTVCSTVKRRFKTLMMRRKKKQLERDVTAAEDKKKKDMELAESDKSKEEKEVNTARIDLNSDPYNKEDVEAVAVEKEESRKRAIGQCSGVVAQDASDVLGVTELEGEGKNVREEPRVSS
For B3, the binding result in experiment [1] is “binds”.

B4: HSI2-myc (protein, UniProt Q8W4L5 1-790)
chain: B3 chain
Regarding B4, in experiment [2], the binding entry is listed as “binds”.

B5: HD2B fused to cYFP (protein, UniProt Q56WH4 1-306)
chain: MEFWGVAVTPKNATKVTPEEDSLVHISQASLDCTVKSGESVVLSVTVGGAKLVIGTLSQDKFPQISFDLVFDKEFELSHSGTKANVHFIGYKSPNIEQDDFTSSDDEDVPEAVPAPAPTAVTANGNAGAAVVKADTKPKAKPAEVKPAEEKPESDEEDESDDEDESEEDDDSEKGMDVDEDDSDDDEEEDSEDEEEEETPKKPEPINKKRPNESVSKTPVSGKKAKPAAAPASTPQKTEEKKKGGHTATPHPAKKGGKSPVNANQSPKSGGQSSGGNNNKKPFNSGKQFGGSNNKGSNKGKGKGRA
As for B5, in experiment [1], the binding result is on record as “binds”.

(Values after publication PMC10258333.)
